Source: article PMC7819943, “Rice protein-binding microarrays: a tool to detect cis-acting elements near promoter regions in rice”
The other results are listed elsewhere or left out.

Chains of the proteins cited; added tags and fusions are not shown.
UniProt Q0JBA9, entry or part of it: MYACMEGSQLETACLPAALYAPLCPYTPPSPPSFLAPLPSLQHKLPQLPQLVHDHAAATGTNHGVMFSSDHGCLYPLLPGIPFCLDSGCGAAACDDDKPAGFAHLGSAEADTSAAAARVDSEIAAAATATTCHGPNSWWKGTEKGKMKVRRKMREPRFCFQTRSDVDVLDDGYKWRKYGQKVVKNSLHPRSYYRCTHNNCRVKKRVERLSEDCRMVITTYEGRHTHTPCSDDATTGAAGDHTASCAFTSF

The sequences below were run against OsWRKY34 (Oryza sativa, UniProt Q0JBA9 1-250) (assay: protein-binding microarray (RPBM); PBS, 2% BSA, 51.3 ng/ul salmon testes DNA, 50 uM zinc acetate, 200 nM TF, 25 C, 1 h; high values mean tight binding). Conditions: protein: recombinant; tags: N-terminal polyhistidine and DsRed monomer fusion (pET32a); label: CyDye5-dUTP incorporated in the synthesized complementary strand; 3' TTTTT single-stranded linker to array surface; dsDNA, one strand shown.
Method in brief: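 An Axon 4000B scanner gave the binding signal as per-feature fluorescence intensity in arbitrary units. This followed washing of a custom Agilent array that had been incubated for 1 h at 25 °C with 200 nM protein in PBS, 2% BSA, salmon testes DNA and 50 µM zinc acetate. The proteins were transcription factors fused at the N-terminus to polyhistidine and DsRed, expressed in E. coli BL21-CodonPlus and purified on Ni–NTA.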

Sequence | binding signal
GCTCTCTAGGGCTCCGCGTCCCCTGTCTCAGCAAATTTCACGGAGTCACCTAGTGCAG | 10600 fluorescence intensity (a.u.)
CTTTTGCAACTCAAGCTACTATATCTATGATGGCATCTGACGGAGTCACCTAGTGCAG | 8400 fluorescence intensity (a.u.)
TTTTTTTTATCTGTGCGATTTCTATTCGTCTCCCTTTTCTCGGAGTCACCTAGTGCAG | 10000 fluorescence intensity (a.u.)
CTTCTAAACATAGCTTCCACAATCGTCTCCGGGCCCTTCTCGGAGTCACCTAGTGCAG | 8320 fluorescence intensity (a.u.)
CGTATGATTGTTTGCTACCTTATGATGTCAGATTCCTGATCGGAGTCACCTAGTGCAG | 8580 fluorescence intensity (a.u.)
TGCCTTTGTCAATTTTTCCATTTGATTCATGTTACTTCATCGGAGTCACCTAGTGCAG | 14700 fluorescence intensity (a.u.)
TCCACCATTGACCAATGCCACGTCCTGCCAAATCCTCCTCCGGAGTCACCTAGTGCAG | 10700 fluorescence intensity (a.u.)
GTTATCACGATAGTCGTGCGGTTACTGAGGTATACCGTGACGGAGTCACCTAGTGCAG | 9310 fluorescence intensity (a.u.)
TGGTCTTCTATGTCACAATTCTAGTTTTGAGGGTAGTTTACGGAGTCACCTAGTGCAG | 9670 fluorescence intensity (a.u.)
TACTTACACTATCATCATCCAGGCCCATATCCAAAGTGGACGGAGTCACCTAGTGCAG | 8070 fluorescence intensity (a.u.)
CACAACCGCTTCCGCTTTCCGCTGCCTCCGCTATACTACACGGAGTCACCTAGTGCAG | 11700 fluorescence intensity (a.u.)
GTGTGCCAAGGTATCCAGAATTCGATCAAATCAATCAATGCGGAGTCACCTAGTGCAG | 8730 fluorescence intensity (a.u.)
AATTTTTTTTTGCTTACAAAGGGTGAAACTTTCTCTCTCTCGGAGTCACCTAGTGCAG | 8500 fluorescence intensity (a.u.)
GTCAATCCCAAATTCACCTCTCGCCGTCACGCGAATTCCGCGGAGTCACCTAGTGCAG | 8480 fluorescence intensity (a.u.)
AATATGTTGAATTCTGTGATCTGCTCATCGATTGGTTTTTCGGAGTCACCTAGTGCAG | 11000 fluorescence intensity (a.u.)
ACTGTGATTTGTTTGTGTTGAAGTATTGTTTGCTCTAATGCGGAGTCACCTAGTGCAG | 10700 fluorescence intensity (a.u.)
TCTCGCCGCCGCCTGCGCTTTCCCCTCGCGCTGCCACCTCCGGAGTCACCTAGTGCAG | 9320 fluorescence intensity (a.u.)
TGATTGACATCTCCTGCTTGGTTTATCAGCGCTTTGCTCTCGGAGTCACCTAGTGCAG | 10400 fluorescence intensity (a.u.)
AATTCGAGGCACTTCTGCTCACCCAACCCAACCCAACCTCCGGAGTCACCTAGTGCAG | 9330 fluorescence intensity (a.u.)
ATTAGCATGTCCAAATTGTTCAGATACCCAACTTATGAATCGGAGTCACCTAGTGCAG | 8910 fluorescence intensity (a.u.)
GTTGACCCATGTCACCACCCTAGCCACCCAATCGACCTTCCGGAGTCACCTAGTGCAG | 8240 fluorescence intensity (a.u.)
GCTCCCTTCTATACCTCTCAGTTTTACCGTTGATCCCTTCCGGAGTCACCTAGTGCAG | 8750 fluorescence intensity (a.u.)
CCCGCCGTTTCGCCCCAAAATTCCGTTCCCGTCCACCTCCCGGAGTCACCTAGTGCAG | 10700 fluorescence intensity (a.u.)
GCAAGGACCTCCGTAAAGTCCACAAGTATACTCTTCGATCCGGAGTCACCTAGTGCAG | 8110 fluorescence intensity (a.u.)
CACAACCTGCTGCACTGCATTACCATCCATCTCTTCTTCTCGGAGTCACCTAGTGCAG | 12900 fluorescence intensity (a.u.)
TTCCGCTCCAGTCTCCACCGCACCCGCCCACCCGCGCGCCCGGAGTCACCTAGTGCAG | 9350 fluorescence intensity (a.u.)
TTTCGCATTTATCGCGCTTGTATTTATTCTCTAATGACATCGGAGTCACCTAGTGCAG | 9030 fluorescence intensity (a.u.)

Single entries from the results shown:
For binding signal, GCTCTCTAGGGCTCCGCGTCCCCTGTCTCAGCAAATTTCACGGAGTCACCTAGTGCAG is listed with 10600 fluorescence intensity (a.u.)
For binding signal, CCCGCCGTTTCGCCCCAAAATTCCGTTCCCGTCCACCTCCCGGAGTCACCTAGTGCAG is listed with 10700 fluorescence intensity (a.u.)

Following part:

Sequence | binding signal
CAGCACCGAAACGGCATTTTCGTCCTCGATGTTCGTCCTCCGGAGTCACCTAGTGCAG | 8810 fluorescence intensity (a.u.)
TTCTGGGCTGTGTGGGTTGGAATTCCTGGGGAATTTAACTCGGAGTCACCTAGTGCAG | 8290 fluorescence intensity (a.u.)
AGGCTGTTTTCTTAAGTCCACTTTTCCAACTTCAACTCACCGGAGTCACCTAGTGCAG | 10200 fluorescence intensity (a.u.)
GATCATAACTAATTGCCTACATGCATACATACCTTATATTCGGAGTCACCTAGTGCAG | 8030 fluorescence intensity (a.u.)
CAAGACACTCTTCTGTTCCGTCACGGCGACTGTAACACCCCGGAGTCACCTAGTGCAG | 8320 fluorescence intensity (a.u.)
CACACGCAGCTCACAAAAGACCGGTTCCACACTTCCACGACGGAGTCACCTAGTGCAG | 8640 fluorescence intensity (a.u.)
CTACTCATCTCTTTCACATGGTCTATTAGAGCTCTAGTATCGGAGTCACCTAGTGCAG | 10100 fluorescence intensity (a.u.)
AACTGCCAGTTTTGTCTCTCCTGCCGTCGTTTTGTTTACGCGGAGTCACCTAGTGCAG | 9140 fluorescence intensity (a.u.)
GGGCTGGATCCACCAATTTAGATTTGAGCTCAACATGAACCGGAGTCACCTAGTGCAG | 8520 fluorescence intensity (a.u.)
GGTATCTGTTGCTGCTTGCTGGTTCTCGTGCTATTGTTCTCGGAGTCACCTAGTGCAG | 19900 fluorescence intensity (a.u.)
CAAACCTCGCGCCGCACTGCCGCCGCCGCCAAAGCCGCAACGGAGTCACCTAGTGCAG | 9170 fluorescence intensity (a.u.)
CGGGCTTTTTTCTCTTGAACTCGGTTAAATGTTCGGCGATCGGAGTCACCTAGTGCAG | 8210 fluorescence intensity (a.u.)
CGTGTCCACCATTTCCGTTTGGTTTTACTCCACTAATAAGCGGAGTCACCTAGTGCAG | 10500 fluorescence intensity (a.u.)
CCGCCGCCGCTCGCCGCCGCATTGCGTTACTCGAGCTCGCCGGAGTCACCTAGTGCAG | 8710 fluorescence intensity (a.u.)
CTGACTTTATCACACGTCTACGATTTGCCACTGACTTTATCGGAGTCACCTAGTGCAG | 9790 fluorescence intensity (a.u.)
TCCCGCTGCTTGGAGTCTGTTTTTAGCCGCCGTAGTTTCTCGGAGTCACCTAGTGCAG | 10700 fluorescence intensity (a.u.)
ACACTCTTTCTTACTCCTGATGCTCTTTCTTGATATAACCCGGAGTCACCTAGTGCAG | 9340 fluorescence intensity (a.u.)
AGTAGCAGCGGCGGCGGCGGAGGGAGGGGAGGTGAACCAGCGGAGTCACCTAGTGCAG | 9420 fluorescence intensity (a.u.)
GGGGTATGAAATGTTTTTTTTTTCCTTTACGTTTCTTTTTCGGAGTCACCTAGTGCAG | 15400 fluorescence intensity (a.u.)
CCCTACGACGCCTACGACTGCCAGATCACATACATGGACCCGGAGTCACCTAGTGCAG | 9600 fluorescence intensity (a.u.)
ACTTTTTAAAACATATTTGACCGTTCTTCTTATTAAAAAACGGAGTCACCTAGTGCAG | 8850 fluorescence intensity (a.u.)
AGTCATCTTCAGCTTTTGATTCACAACATCTTCATTCTGACGGAGTCACCTAGTGCAG | 8630 fluorescence intensity (a.u.)
TGGTGTTGGTTCTAAAATTTAAACATTGTGACTTTCCTTACGGAGTCACCTAGTGCAG | 11200 fluorescence intensity (a.u.)
TCAACCTCGCCTACAACAACCTCACCGGTGCCGTGCCATCCGGAGTCACCTAGTGCAG | 8540 fluorescence intensity (a.u.)
CGTGCGGGCTCTACCAATCCACACCACACCACCCTATAAACGGAGTCACCTAGTGCAG | 9780 fluorescence intensity (a.u.)
CTGTTGCTGTCGCCGGATCGCCTTTTGCCCTCCCGTACTTCGGAGTCACCTAGTGCAG | 8570 fluorescence intensity (a.u.)
ATGCCTGCTCCTAGTGTATCGTTGGGATCTAGCTTGTTCTCGGAGTCACCTAGTGCAG | 8920 fluorescence intensity (a.u.)

2 consecutive records from above:
Sequence | binding signal
CACAACCTGCTGCACTGCATTACCATCCATCTCTTCTTCTCGGAGTCACCTAGTGCAG | 12900 fluorescence intensity (a.u.)
TTCCGCTCCAGTCTCCACCGCACCCGCCCACCCGCGCGCCCGGAGTCACCTAGTGCAG | 9350 fluorescence intensity (a.u.)
